Data published in paper PMC4381262.
Results are given in words; binding and its absence hold for the method and conditions named. Binding seen in cells or lysates may run through a third protein. Some binding calls cover weakened binding; strength is not graded here.

Protein sequences, listed by entry. Tags and fused reporters are not part of them.
UniProt Q8R550: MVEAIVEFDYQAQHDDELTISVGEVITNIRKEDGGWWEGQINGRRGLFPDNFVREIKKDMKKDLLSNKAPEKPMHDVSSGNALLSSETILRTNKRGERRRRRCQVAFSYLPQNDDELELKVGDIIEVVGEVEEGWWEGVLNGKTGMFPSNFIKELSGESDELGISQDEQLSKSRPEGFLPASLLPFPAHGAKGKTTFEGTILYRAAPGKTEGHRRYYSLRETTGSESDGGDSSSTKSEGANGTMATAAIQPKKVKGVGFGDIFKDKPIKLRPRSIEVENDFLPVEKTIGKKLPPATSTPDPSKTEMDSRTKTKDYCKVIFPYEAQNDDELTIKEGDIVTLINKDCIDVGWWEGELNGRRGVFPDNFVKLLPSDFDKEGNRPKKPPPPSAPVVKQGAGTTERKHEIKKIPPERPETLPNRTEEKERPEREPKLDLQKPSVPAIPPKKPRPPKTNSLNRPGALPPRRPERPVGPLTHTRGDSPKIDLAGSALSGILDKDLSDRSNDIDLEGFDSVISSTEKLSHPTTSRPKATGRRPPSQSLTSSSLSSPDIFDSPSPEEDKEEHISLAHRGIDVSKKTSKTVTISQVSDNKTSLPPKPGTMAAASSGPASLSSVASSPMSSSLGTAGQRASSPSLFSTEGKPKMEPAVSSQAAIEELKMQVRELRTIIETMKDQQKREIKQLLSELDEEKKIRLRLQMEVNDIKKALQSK

Molecular target: CIN85 (Cbl-interacting protein of 85 kDa), endogenous mouse protein (mouse (endogenous in RMA and IG10 cells and in mouse colon tissue)) (UniProt Q8R550)
Assay: co-IP; whole cell lysates (RIPA buffer, 500 ug protein) of RMA/MUC1, IG10/MUC1 or Caco-2 cells precipitated with anti-CIN85 antibody or control IgG (16 h, 4 °C, protein G-Sepharose); washes with RIPA containing 0.5 M NaCl, 2% SDS; immunoblotted with anti-MUC1 VU 4H5 and anti-Cbl

For “Cbl (c-Cbl, Casitas B-lineage lymphoma), endogenous mouse protein (from UniProt P22682 1-913)”, the binding was “binds”.
